# Test results as given in the supplement of paper PMC8728848.
# Some of the results follow.
# B1: CLEC9a (Mus musculus), Q8BRU4 (protein)
# chain: MHAEEIYTSLQWDIPTSEASQKCQSPSKCSGAWCVVTMISCVVCMGLLATSIFLGIKFFQVSSLVLEQQERLIQQDTALVNLTQWQRKYTLEYCQALLQRSLHSGSDCSPCPHNWIQNGKSCYYVFERWEMWNISKKSCLKEGASLFQIDSKEEMEFISSIGKLKGGNKYWVGVFQDGISGSWFWEDGSSPLSDLLPAERQRSAGQICGYLKDSTLISDKCDSWKYFICEKKAFGSCI
# Tests used:
# Experiment in all cases: glycan array binding signal (z-score within array); higher = stronger binding
# Details in all cases: glycan notation: IUPAC condensed, linker removed
# [1] = target: GalNAc(b1-3)Gal(a1-4)Gal(b1-4)GlcNAc
# Summary of the method: (§1)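 From the Consortium for Functional Glycomics database, 3228 arrays were curated, keeping only those whose protein sequence was available. Binding is given as a within-array Z-score averaged across arrays sharing a protein sequence and across linkers. Negative Z-scores can be read as non-binding.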
# [2] = target: GalNAc(b1-3)Gal(a1-4)Gal(b1-4)GlcNAc(b1-3)Gal(b1-4)Glc
# Summary of the method: as §1
# [3] = target: GalNAc(b1-3)Gal(a1-6)Gal(b1-4)Glc
# Summary of the method: as §1
# GalNAc(b1-3)GalNAc = target: GalNAc(b1-3)GalNAc
# Summary of the method: as §1
# GalNAc(b1-4)GlcNAc = target: GalNAc(b1-4)GlcNAc
# Summary of the method: as §1
# [4] = target: GalNAc(b1-4)GlcNAc(b1-2)Man(a1-3)[GalNAc(b1-4)GlcNAc(b1-2)Man(a1-6)]Man(b1-4)GlcNAc(b1-4)GlcNAc
# Summary of the method: as §1
# Glc(a1-4)Glc = target: Glc(a1-4)Glc
# Summary of the method: as §1
# Glc(a1-6)Glc(a1-6)Glc = target: Glc(a1-6)Glc(a1-6)Glc
# Summary of the method: as §1
# Glc(b1-4)Glc = target: Glc(b1-4)Glc
# Summary of the method: as §1
# Glc(b1-6)Glc = target: Glc(b1-6)Glc
# Summary of the method: as §1
# GlcA(b1-3)Gal = target: GlcA(b1-3)Gal
# Summary of the method: as §1
# GlcA(b1-3)GlcNAc = target: GlcA(b1-3)GlcNAc
# Summary of the method: as §1
# GlcA(b1-6)Gal = target: GlcA(b1-6)Gal
# Summary of the method: as §1
# [5] = target: GlcNAc(a1-3)Gal(b1-4)GlcNAc
# Summary of the method: as §1
# [6] = target: GlcNAc(a1-4)Gal(b1-3)GlcNAc
# Summary of the method: as §1
# [7] = target: GlcNAc(a1-4)Gal(b1-4)GalNAc
# Summary of the method: as §1
# [8] = target: GlcNAc(a1-4)Gal(b1-4)GlcNAc
# Summary of the method: as §1
# [9] = target: GlcNAc(a1-4)Gal(b1-4)GlcNAc(b1-3)Gal(b1-4)Glc
# Summary of the method: as §1
# [10] = target: GlcNAc(a1-4)Gal(b1-4)GlcNAc(b1-3)Gal(b1-4)GlcNAc
# Summary of the method: as §1
# [11] = target: GlcNAc(a1-4)Gal(b1-4)GlcNAc(b1-3)Gal(b1-4)GlcNAc(b1-3)Gal(b1-4)GlcNAc
# Summary of the method: as §1
# [12] = target: GlcNAc(a1-4)Gal(b1-4)GlcNAc(b1-3)Gal(b1-4)[Fuc(a1-3)]GlcNAc(b1-3)Gal(b1-4)[Fuc(a1-3)]GlcNAc
# Summary of the method: as §1
# [13] = target: GlcNAc(a1-6)Gal(b1-4)GlcNAc
# Summary of the method: as §1
# [14] = target: GlcNAc(b1-2)Gal(b1-3)GalNAc
# Summary of the method: as §1
# [15] = target: GlcNAc(b1-2)Man(a1-3)[GlcNAc(b1-2)Man(a1-6)]Man(b1-4)GlcNAc(b1-4)GlcNAc
# Summary of the method: as §1
# [16] = target: GlcNAc(b1-2)Man(a1-3)[GlcNAc(b1-2)Man(a1-6)]Man(b1-4)GlcNAc(b1-4)[Fuc(a1-6)]GlcNAc
# Summary of the method: as §1
# [17] = target: GlcNAc(b1-2)[GlcNAc(b1-4)]Man(a1-3)[GlcNAc(b1-2)Man(a1-6)]Man(b1-4)GlcNAc(b1-4)GlcNAc
# Summary of the method: as §1
# GlcNAc(b1-3)Gal = target: GlcNAc(b1-3)Gal
# Summary of the method: as §1
# [18] = target: GlcNAc(b1-3)Gal(b1-3)GalNAc
# Summary of the method: as §1
# GlcNAc(b1-3)Gal(b1-4)Glc = target: GlcNAc(b1-3)Gal(b1-4)Glc
# Summary of the method: as §1
# [19] = target: GlcNAc(b1-3)Gal(b1-4)GlcNAc
# Summary of the method: as §1
# [20] = target: GlcNAc(b1-3)Gal(b1-4)GlcNAc(b1-3)Gal(b1-4)GlcNAc
# Summary of the method: as §1
# GlcNAc(b1-3)GalNAc = target: GlcNAc(b1-3)GalNAc
# Summary of the method: as §1
# GlcNAc(b1-3)Man = target: GlcNAc(b1-3)Man
# Summary of the method: as §1
# [21] = target: GlcNAc(b1-3)[GlcNAc(b1-4)][GlcNAc(b1-6)]GlcNAc
# Summary of the method: as §1
# [22] = target: GlcNAc(b1-3)[GlcNAc(b1-6)]Gal(b1-4)GlcNAc
# Summary of the method: as §1
# [23] = target: GlcNAc(b1-3)[GlcNAc(b1-6)]GalNAc
# Summary of the method: as §1
# [24] = target: GlcNAc(b1-4)Gal(b1-4)GlcNAc
# Summary of the method: as §1
# GlcNAc(b1-4)GlcNAc = target: GlcNAc(b1-4)GlcNAc
# Summary of the method: as §1
# [25] = target: GlcNAc(b1-4)GlcNAc(b1-4)GlcNAc
# Summary of the method: as §1
# [26] = target: GlcNAc(b1-4)GlcNAc(b1-4)GlcNAc(b1-4)GlcNAc(b1-4)GlcNAc
# Summary of the method: as §1
# [27] = target: GlcNAc(b1-4)GlcNAc(b1-4)GlcNAc(b1-4)GlcNAc(b1-4)GlcNAc(b1-4)GlcNAc
# Summary of the method: as §1
# [28] = target: GlcNAc(b1-4)[GlcNAc(b1-6)]GalNAc
# Summary of the method: as §1
# [29] = target: GlcNAc(b1-6)Gal(b1-4)GlcNAc
# Summary of the method: as §1
# GlcNAc(b1-6)GalNAc = target: GlcNAc(b1-6)GalNAc
# Summary of the method: as §1
# GlcNAc3Prop(b1-4)GlcNAc = target: GlcNAc3Prop(b1-4)GlcNAc
# Summary of the method: as §1
binder,measurement,setting,value
B1,glycan array binding signal (z-score),[1],-0.473
same,glycan array binding signal (z-score),[2],-0.553
same,glycan array binding signal (z-score),[3],-0.386
same,glycan array binding signal (z-score),GalNAc(b1-3)GalNAc,-0.705
same,glycan array binding signal (z-score),GalNAc(b1-4)GlcNAc,0.171
same,glycan array binding signal (z-score),[4],-1.69
same,glycan array binding signal (z-score),Glc(a1-4)Glc,-0.603
same,glycan array binding signal (z-score),Glc(a1-6)Glc(a1-6)Glc,-0.171
same,glycan array binding signal (z-score),Glc(b1-4)Glc,-1.28
same,glycan array binding signal (z-score),Glc(b1-6)Glc,0.001
same,glycan array binding signal (z-score),GlcA(b1-3)Gal,-1.69
same,glycan array binding signal (z-score),GlcA(b1-3)GlcNAc,-0.226
same,glycan array binding signal (z-score),GlcA(b1-6)Gal,-1.16
same,glycan array binding signal (z-score),[5],-1.28
same,glycan array binding signal (z-score),[6],-0.096
same,glycan array binding signal (z-score),[7],0.796
same,glycan array binding signal (z-score),[8],1.29
same,glycan array binding signal (z-score),[9],-1.68
same,glycan array binding signal (z-score),[10],-1.36
same,glycan array binding signal (z-score),[11],-0.359
same,glycan array binding signal (z-score),[12],0.915
same,glycan array binding signal (z-score),[13],-0.784
same,glycan array binding signal (z-score),[14],-1.55
same,glycan array binding signal (z-score),[15],-0.834
same,glycan array binding signal (z-score),[16],0.415
same,glycan array binding signal (z-score),[17],4.01
same,glycan array binding signal (z-score),GlcNAc(b1-3)Gal,-0.21
same,glycan array binding signal (z-score),[18],0.009
same,glycan array binding signal (z-score),GlcNAc(b1-3)Gal(b1-4)Glc,-0.669
same,glycan array binding signal (z-score),[19],-1.06
same,glycan array binding signal (z-score),[20],-0.816
same,glycan array binding signal (z-score),GlcNAc(b1-3)GalNAc,-0.548
same,glycan array binding signal (z-score),GlcNAc(b1-3)Man,-0.506
same,glycan array binding signal (z-score),[21],-0.245
same,glycan array binding signal (z-score),[22],-1.89
same,glycan array binding signal (z-score),[23],-0.652
same,glycan array binding signal (z-score),[24],0.714
same,glycan array binding signal (z-score),GlcNAc(b1-4)GlcNAc,0.509
same,glycan array binding signal (z-score),[25],2.95
same,glycan array binding signal (z-score),[26],-1.04
same,glycan array binding signal (z-score),[27],0.022
same,glycan array binding signal (z-score),[28],-1
same,glycan array binding signal (z-score),[29],-2.84
same,glycan array binding signal (z-score),GlcNAc(b1-6)GalNAc,0.178
same,glycan array binding signal (z-score),GlcNAc3Prop(b1-4)GlcNAc,-1.05

# Part of the list above, bar-delimited.
binder | measurement | setting | value
B1 | glycan array binding signal (z-score) | [3] | -0.386
same | glycan array binding signal (z-score) | [9] | -1.68
same | glycan array binding signal (z-score) | GlcNAc(b1-3)Man | -0.506
